Measured values: PubChem BioAssay AID1347076 (National Center for Advancing Translational Sciences (NCATS), 2019)
Screen size: about 400,000 compounds; about 13,000 (3.2%) were called active. Inconclusive results, whose numbers are uncertain, are shown with a selection of clear calls. The call rests on the fitted dose curve; in most records, active means well fitted cell-killing curve with a large enough effect; inconclusive means small, poorly fitted or top-dose-only effect, or effect the other way; inactive means flat fitted curve, though single readings scatter. Potencies of inconclusive entries are doubtful fits and often do not repeat.

Assay: qHTS assay for MDR1-selective chemotherapeutics: Primary screen using the drug-selected MDR subline cells KB-V1; further: nearly all actives have a fitted effect of over 60% in size
Conditions: KB-V1 MDR cells viability, CellTiter-Glo, 72 h; activity change, negative = cytotoxicity: at 46.1 µM (top of the series)
Outline: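 Drug-selected KB-V1 cells, grown in DMEM lacking phenol red with 10% FBS, receive compound titrations; after three days at 37 degrees C, surviving cell ATP is quantified by CellTiter-Glo luminescence and responses normalized and curve-fitted.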
On the % scale 0 is the no-effect control and ±100 the full control effect; potency means the concentration at half of the fitted maximal effect.

| SMILES | Potency | activity change, negative = cytotoxicity |
| --- | --- | --- |
| CCCCN(C)c1c(C)nc2ccc(C(=O)NCc3cccs3)cn12 | inconclusive: 3.66 µM [cytotoxic, partial curve] |  |
| COc1ccc(-c2cc(C(=O)Nc3cc(Cl)ccc3O)no2)cc1 | inactive |  |
| CCCCc1c(C)nc(Nc2ccc(OC)cc2)[nH]c1=O | active: 23.1 µM |  |
| O=C(NCC1COc2ccccc2O1)C1CCCN(S(=O)(=O)c2cccc3nsnc23)C1 (stereo not given) | inconclusive: 18.4 µM [cytotoxic, single point] |  |
| Cc1nn(C(=O)Cn2ccc([N+](=O)[O-])n2)c(C)c1Cl | inconclusive: 29.1 µM [rising, single point] |  |
| N=C1/C(=C/c2ccc(-c3cccc(C(=O)O)c3)o2)C(=O)N=C2SC(CC(=O)N3CCOCC3)=NN12 | inconclusive: 0.651 µM [cytotoxic, full curve, poor fit] |  |
| COc1ccc(C(CNC(=O)c2cccc(S(=O)(=O)NCc3ccccc3)c2)N2CCOCC2)cc1 (stereo not given) | active: 18.4 µM |  |
| COc1cccc(C(=O)N2CCN(CCCc3ccccc3)CC2)c1OC | inconclusive: 13 µM [cytotoxic, partial curve] |  |
| COc1ccc(-n2ncc3c(NCCCOC(C)C)ncnc32)cc1 | inactive |  |
| Cc1ccc2[nH]c(=O)c(CN(Cc3cccs3)Cc3nnnn3Cc3ccco3)cc2c1 | inconclusive: 23.1 µM [cytotoxic, single point] |  |
| Cn1c(=O)c2cc(NCc3ccccc3)nnc2n(C)c1=O | inconclusive: 7.31 µM [cytotoxic, partial curve] |  |
| Cc1cccc(N2CCN(C(c3ccccc3)c3nnnn3CC3CCCO3)CC2)c1C (stereo not given) | inconclusive: 18.4 µM [cytotoxic, partial curve, poor fit] |  |
| CC(C)Oc1ccc(/C=C/C(=O)NCC2COc3ccccc3O2)cc1 (stereo not given) | inconclusive: 20.6 µM [cytotoxic, single point] |  |
| C/C=C(\C)C(=O)OC(C)(C)[C@H]1Cc2cc3ccc(=O)oc3cc2O1 | inconclusive: 6.51 µM [cytotoxic, partial curve, poor fit] |  |
| CCn1c(-c2cccn(Cc3ccccc3)c2=O)n[nH]c1=S | inactive |  |
| C=CCn1c(SCC(=O)NC2CCCCC2)nnc1-c1ccccn1 | inconclusive: 9.2 µM [cytotoxic, partial curve] |  |
| Cc1nc(N2CCN(Cc3ccc(Cl)cc3)CC2)c2oc3ccccc3c2n1 | inconclusive: 29.1 µM [cytotoxic, single point] |  |
| COc1ccc(Oc2cccc(Cl)c2CNC(=O)CCC(=O)O)cc1 | inconclusive: 0.0041 µM [cytotoxic, full curve, poor fit] |  |
| CC(=O)Nc1ccc(N2C(=O)CSC2c2c(F)cccc2Cl)cc1 (stereo not given) | inactive |  |
| COc1ccc2c(c1)c(CC(=O)Nc1ccc(C)cc1)c(C)n2C(=O)c1ccc(Cl)cc1 | inactive |  |
| COc1cc(NC(=O)Cn2c(=O)n(CC3CCC(C(=O)NCCc4ccccc4)CC3)c(=O)c3ccccc32)cc(OC)c1 (stereo not given) | inactive |  |
| CN(C)c1ccc(/C=C(\C#N)c2ccccc2)cc1 | inconclusive: 7.31 µM [cytotoxic, partial curve, poor fit] |  |
| CC1CCN(CCCNC(=O)C2CCCN(c3ncnc4c3nc3n4CCCCC3)C2)CC1 (stereo not given) | inactive |  |
| Cc1ccc(OCC(=O)NC2=NCCS2)cc1 | inactive |  |

| SMILES | Potency | activity change, negative = cytotoxicity |
| --- | --- | --- |
| CC(c1nc2ccccc2c(=O)[nH]1)N1CCN(S(=O)(=O)c2ccc(F)c(Cl)c2)CC1 (stereo not given) | inactive |  |
| CC(=O)c1cc(-c2ccccc2)n(CC(=O)Nc2cccc(C)c2C)c1C | inactive |  |
| Cc1nc(C)c(-c2ccc(SCC(=O)Nc3ccccc3)nn2)s1 | inconclusive: 5.17 µM [cytotoxic, partial curve] |  |
| CN(C)CCNC(=O)c1sc2nc(-c3ccccc3)cc(C(F)(F)F)c2c1N | inconclusive: 18.4 µM [cytotoxic, single point] |  |
| CC1(C(=O)Nc2ccc3c(c2)OCCO3)CSCC(=O)N1CCOc1ccccc1 (stereo not given) | inconclusive: 8.2 µM [cytotoxic, partial curve, poor fit] |  |
| CCN(C(=O)COc1cc(=O)n(CC)c2ccccc12)c1cc(Cl)ccc1OC | inconclusive: 29.1 µM [cytotoxic, single point] |  |
| CC(C)(C)C(=O)/C=C1\SCC(=O)N1CC(=O)N1CCN(c2ccccc2)CC1 | inconclusive: 29.1 µM [cytotoxic, single point] |  |
| O=C(NCC1CCCN(Cc2cccc(C(F)(F)F)c2)C1)c1ccc(F)cc1 (stereo not given) | inactive |  |
| O=C(N/N=C/c1cccc(O)c1)c1ccc(COc2cccc3cccnc23)cc1 | inactive |  |
| C=CCSc1nc2ccccc2n1C(=O)/C=C/c1cc(OC)c(OC)c(OC)c1 | inconclusive: 4.11 µM [cytotoxic, full curve, poor fit] |  |
| Cc1ccccc1OCCCC(=O)Nc1nccs1 | inconclusive: 20.6 µM [cytotoxic, single point] |  |
| CCN1CCN(c2ccc(S(=O)(=O)N3CCOCC3)cc2NC(=O)CC(NC(C)=O)c2ccccc2)CC1 (stereo not given) | inactive |  |
| COc1cccc(CNC(=O)C2CCN(S(=O)(=O)N3CC(C)CC(C)C3)CC2)c1 (stereo not given) | inconclusive: 1.3 µM [cytotoxic, full curve, poor fit] |  |
| Cc1cccc(N2CCN(c3nc4nonc4nc3N3CCSCC3)CC2)n1 | inconclusive: 3.26 µM [cytotoxic, full curve] |  |
| Cc1ccc(NC2=NCC(=O)N2Cc2ccc3c(c2)OCO3)c(C)c1 |  | inconclusive: -39.2% [cytotoxic] |
| O=C(NC1CCCCC1)N1CCCC(c2nc(-c3cccs3)no2)C1 (stereo not given) | inactive |  |
| O=C(NNC(=O)c1cccs1)c1ccc(S(=O)(=O)N2CCCCC2)cc1 | inconclusive: 0.092 µM [rising, single point] |  |
| Cc1ccc(Nc2nc(C(=O)NCCCN3CCOCC3)cs2)cc1 | inconclusive: 18.4 µM [cytotoxic, single point] |  |
| CCC(c1nnnn1-c1ccc2c(c1)OCCO2)N1CCN(c2cc(C)ccc2C)CC1 (stereo not given) | inconclusive: 10.3 µM [cytotoxic, partial curve] |  |
| FC(F)(F)c1cc(-c2ccco2)nc(N2CCOCC2)n1 | inconclusive: 13 µM [rising, partial curve, poor fit] |  |
| CCC(=O)N1CCCc2cc(S(=O)(=O)N3CCN(C4CCCCC4)CC3)ccc21 | inconclusive: 15.8 µM [cytotoxic, single point] |  |
| COCc1c(C(=O)N(C)Cc2ccccc2N2CCCC2)oc2ccccc12 | inconclusive: 23.1 µM [cytotoxic, single point] |  |
| Nc1nc2ccccc2cc1C(=O)NCCCCc1ccccc1 | active: 2.59 µM |  |
| O=C(NCc1cccc(Cl)c1)c1c2c(nc3ccccc13)C(=O)N(C1CCCCC1)C2 | inactive |  |

| SMILES | Potency | activity change, negative = cytotoxicity |
| --- | --- | --- |
| O=C(NCCc1ccc(F)cc1)c1ccc(Cl)c(S(=O)(=O)N2CCOCC2)c1 | inactive |  |
| CSc1ccc(NC(=O)NN(c2ccccc2)C2CCS(=O)(=O)C2)cc1 (stereo not given) | inactive |  |
| COC(=O)[C@@H](NC(=O)N1CCN(c2cccc(C(F)(F)F)c2)CC1)C(C)C | inconclusive: 0.517 µM [cytotoxic, partial curve, poor fit] |  |
| CC1(C)CC(=O)C=C(C#CC2(O)CCCCC2)C1 | active: 16.4 µM |  |
| C=CCNC(=S)N/N=C/c1ccc(C(F)(F)F)cc1 | inactive |  |
| CC(C)(C)OC(=O)NCCC(=O)Oc1ccc2ccc(=O)oc2c1 | inconclusive: 29.1 µM [rising, single point] |  |
| CN1C(=O)[C@H]2[C@@H](/C=C/c3ccccc3)N3C(=O)CN(Cc4ccc(-c5ccccc5)cc4)C(=O)[C@@]3(Cc3ccccc3)[C@H]2C1=O | inactive |  |
| c1ccc(-c2csc3ncnc(NCCCN4CCOCC4)c23)cc1 | active: 8.2 µM |  |
| NC(=O)c1ccc(-c2ncc(-c3ccccc3)o2)cc1 | inconclusive: 6.51 µM [cytotoxic, partial curve] |  |
| COc1cccc(NC(=O)CCCOc2cc(=O)n(C)c3ccccc23)c1 | inconclusive: 29.1 µM [cytotoxic, single point] |  |
| COc1ccc(CN(C(=O)CN2C(=O)NC3(CCC(C)CC3)C2=O)C(C)Cc2cccs2)cc1 (stereo not given) | inconclusive: 20.6 µM [rising, single point] |  |
| Cc1nnc(Sc2cc(C(=O)NCCCN(C)Cc3ccccc3)c3ccccc3n2)s1 | inconclusive: 18.4 µM [cytotoxic, single point] |  |
| CCOc1ccc(Cl)cc1S(=O)(=O)N1CCC(C(=O)NC2CC2)CC1 | inconclusive: 18.4 µM [cytotoxic, partial curve, poor fit] |  |
| O=C(NCCOc1ccccc1F)c1ccc2c(=O)n3c(nc2c1)CCC3 | inactive |  |
| Cc1ccc(S(=O)(=O)N2CCN(Cc3cc(C(C)C)ccc3O)CC2)cc1 | inconclusive: 20.6 µM [cytotoxic, single point] |  |
| CCN(CCNC(=O)C1CCC(=O)N1Cc1ccc(C)cc1)c1ccccc1 (stereo not given) | inconclusive: 9.2 µM [cytotoxic, partial curve, poor fit] |  |
| COc1ccc(N2C(=O)CSC2c2cccs2)cc1 (stereo not given) | inconclusive: 18.4 µM [cytotoxic, partial curve, poor fit] |  |
| O=C(OCc1ccc(Br)cc1)c1cccc(-c2nnc(-c3ccccc3)o2)c1 | active: 9.2 µM |  |
| Cc1ccc(-c2csc(N3CCC(C(N)=O)CC3)n2)cc1 | inactive |  |
| CN(C)c1ccc(/C=C2/C[N+](C)(C)C/C(=C/c3ccc(N(C)C)cc3)C2=O)cc1 | inactive |  |
| CCOC(=O)CCSCC(=O)Nc1cc(C)on1 | inconclusive: 16.4 µM [rising, single point] |  |
| Cc1ccc(C(=O)/C=C/c2ccccc2)o1 | inconclusive: 29.1 µM [cytotoxic, single point] |  |

Exported with tabs: entries from further up
SMILES	Potency	activity change, negative = cytotoxicity
COC(=O)[C@@H](NC(=O)N1CCN(c2cccc(C(F)(F)F)c2)CC1)C(C)C	inconclusive: 0.517 µM [cytotoxic, partial curve, poor fit]	
CC1(C)CC(=O)C=C(C#CC2(O)CCCCC2)C1	active: 16.4 µM	
CN1C(=O)[C@H]2[C@@H](/C=C/c3ccccc3)N3C(=O)CN(Cc4ccc(-c5ccccc5)cc4)C(=O)[C@@]3(Cc3ccccc3)[C@H]2C1=O	inactive	
